# Test results from ChEMBL document CHEMBL4665727, “Discovery of biphenyl pyrazole scaffold for neurodegenerative diseases: A novel class of acetylcholinesterase-centered multitargeted ligands” (Bioorg Med Chem Lett, 2020).
# Assay: Permeability of compound by PAMPA-BBB assay
structure (smiles),measurement,value
COc1cc2c(cc1OC)C(=O)C(CC1CCN(Cc3ccccc3)CC1)C2 (stereo unspecified) [DONEPEZIL],Papp,23.4 ×10⁻⁶ cm/s
